Results are given in words; binding and its absence hold for the method and conditions named. Binding seen in cells or lysates may run through a third protein. Some results given as binding are weak or reduced against the parent protein; the word gives no strength.

Chains of the proteins cited; added tags and fusions are not shown.
UniProt Q08999: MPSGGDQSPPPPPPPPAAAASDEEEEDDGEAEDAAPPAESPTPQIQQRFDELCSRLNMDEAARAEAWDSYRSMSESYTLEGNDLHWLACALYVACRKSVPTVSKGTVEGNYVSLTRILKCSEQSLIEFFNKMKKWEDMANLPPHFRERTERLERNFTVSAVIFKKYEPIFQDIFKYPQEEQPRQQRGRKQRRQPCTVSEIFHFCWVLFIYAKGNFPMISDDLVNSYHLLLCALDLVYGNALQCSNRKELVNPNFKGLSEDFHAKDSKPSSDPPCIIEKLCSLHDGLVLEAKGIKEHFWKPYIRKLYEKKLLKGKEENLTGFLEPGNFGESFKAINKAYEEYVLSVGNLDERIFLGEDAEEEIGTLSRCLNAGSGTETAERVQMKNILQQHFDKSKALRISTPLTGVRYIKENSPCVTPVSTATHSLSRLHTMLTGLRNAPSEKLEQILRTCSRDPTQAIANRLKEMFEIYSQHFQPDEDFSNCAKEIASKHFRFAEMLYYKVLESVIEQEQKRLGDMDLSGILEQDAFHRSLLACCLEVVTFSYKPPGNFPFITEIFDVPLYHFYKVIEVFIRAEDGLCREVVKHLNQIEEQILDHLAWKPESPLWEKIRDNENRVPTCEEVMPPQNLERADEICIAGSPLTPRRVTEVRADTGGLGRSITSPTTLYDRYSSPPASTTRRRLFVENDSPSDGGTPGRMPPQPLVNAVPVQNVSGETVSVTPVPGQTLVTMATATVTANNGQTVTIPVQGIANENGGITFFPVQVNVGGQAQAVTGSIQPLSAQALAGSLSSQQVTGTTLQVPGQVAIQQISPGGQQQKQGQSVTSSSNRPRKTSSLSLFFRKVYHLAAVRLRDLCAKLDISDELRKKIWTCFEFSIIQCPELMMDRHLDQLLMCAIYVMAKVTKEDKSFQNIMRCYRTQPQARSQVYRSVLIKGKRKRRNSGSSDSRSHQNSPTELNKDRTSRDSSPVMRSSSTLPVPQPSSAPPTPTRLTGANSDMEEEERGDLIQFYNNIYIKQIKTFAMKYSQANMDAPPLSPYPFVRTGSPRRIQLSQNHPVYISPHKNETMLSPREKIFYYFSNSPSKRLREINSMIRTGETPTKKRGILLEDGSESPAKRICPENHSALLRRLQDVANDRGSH
UniProt P03083: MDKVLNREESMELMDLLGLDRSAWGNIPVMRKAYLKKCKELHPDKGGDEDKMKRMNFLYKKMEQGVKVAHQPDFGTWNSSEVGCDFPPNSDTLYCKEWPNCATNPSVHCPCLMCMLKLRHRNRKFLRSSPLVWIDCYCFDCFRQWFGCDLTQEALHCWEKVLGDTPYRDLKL

One test concerns the target p130 (UniProt Q08999). Nature of the test: co-IP; data not shown: co-IP/WB for p130 and pRB; antibodies and conditions not told.
In another test the target is T1, pRB (UniProt P06400).
T1 sequence: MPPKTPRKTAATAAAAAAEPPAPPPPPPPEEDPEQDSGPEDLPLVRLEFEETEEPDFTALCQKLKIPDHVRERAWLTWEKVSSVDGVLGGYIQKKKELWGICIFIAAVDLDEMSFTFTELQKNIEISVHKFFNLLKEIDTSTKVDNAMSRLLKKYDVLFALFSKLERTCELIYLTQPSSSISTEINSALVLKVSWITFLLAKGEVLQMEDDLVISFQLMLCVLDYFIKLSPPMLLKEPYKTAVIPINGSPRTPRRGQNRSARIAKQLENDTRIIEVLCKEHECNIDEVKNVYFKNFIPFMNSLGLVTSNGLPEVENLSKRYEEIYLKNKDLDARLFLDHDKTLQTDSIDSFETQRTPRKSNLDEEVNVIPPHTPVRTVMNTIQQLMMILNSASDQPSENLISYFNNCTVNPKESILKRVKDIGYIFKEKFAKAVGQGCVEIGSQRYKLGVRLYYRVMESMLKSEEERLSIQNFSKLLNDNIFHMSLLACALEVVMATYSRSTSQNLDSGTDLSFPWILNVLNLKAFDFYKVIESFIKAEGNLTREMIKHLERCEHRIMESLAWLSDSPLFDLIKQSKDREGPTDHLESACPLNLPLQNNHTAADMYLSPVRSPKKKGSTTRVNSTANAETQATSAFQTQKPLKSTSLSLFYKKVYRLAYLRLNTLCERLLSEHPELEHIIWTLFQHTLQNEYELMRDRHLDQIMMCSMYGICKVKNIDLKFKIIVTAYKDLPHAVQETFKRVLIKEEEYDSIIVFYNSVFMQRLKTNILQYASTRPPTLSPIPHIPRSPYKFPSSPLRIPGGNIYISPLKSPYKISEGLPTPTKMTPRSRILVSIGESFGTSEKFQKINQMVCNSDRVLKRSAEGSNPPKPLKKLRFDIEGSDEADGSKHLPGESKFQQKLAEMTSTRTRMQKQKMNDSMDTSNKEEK
Described as above.

For test [1], the target named is T2, p107 (human (endogenous in Molt 4)) (UniProt P28749).
T2 sequence: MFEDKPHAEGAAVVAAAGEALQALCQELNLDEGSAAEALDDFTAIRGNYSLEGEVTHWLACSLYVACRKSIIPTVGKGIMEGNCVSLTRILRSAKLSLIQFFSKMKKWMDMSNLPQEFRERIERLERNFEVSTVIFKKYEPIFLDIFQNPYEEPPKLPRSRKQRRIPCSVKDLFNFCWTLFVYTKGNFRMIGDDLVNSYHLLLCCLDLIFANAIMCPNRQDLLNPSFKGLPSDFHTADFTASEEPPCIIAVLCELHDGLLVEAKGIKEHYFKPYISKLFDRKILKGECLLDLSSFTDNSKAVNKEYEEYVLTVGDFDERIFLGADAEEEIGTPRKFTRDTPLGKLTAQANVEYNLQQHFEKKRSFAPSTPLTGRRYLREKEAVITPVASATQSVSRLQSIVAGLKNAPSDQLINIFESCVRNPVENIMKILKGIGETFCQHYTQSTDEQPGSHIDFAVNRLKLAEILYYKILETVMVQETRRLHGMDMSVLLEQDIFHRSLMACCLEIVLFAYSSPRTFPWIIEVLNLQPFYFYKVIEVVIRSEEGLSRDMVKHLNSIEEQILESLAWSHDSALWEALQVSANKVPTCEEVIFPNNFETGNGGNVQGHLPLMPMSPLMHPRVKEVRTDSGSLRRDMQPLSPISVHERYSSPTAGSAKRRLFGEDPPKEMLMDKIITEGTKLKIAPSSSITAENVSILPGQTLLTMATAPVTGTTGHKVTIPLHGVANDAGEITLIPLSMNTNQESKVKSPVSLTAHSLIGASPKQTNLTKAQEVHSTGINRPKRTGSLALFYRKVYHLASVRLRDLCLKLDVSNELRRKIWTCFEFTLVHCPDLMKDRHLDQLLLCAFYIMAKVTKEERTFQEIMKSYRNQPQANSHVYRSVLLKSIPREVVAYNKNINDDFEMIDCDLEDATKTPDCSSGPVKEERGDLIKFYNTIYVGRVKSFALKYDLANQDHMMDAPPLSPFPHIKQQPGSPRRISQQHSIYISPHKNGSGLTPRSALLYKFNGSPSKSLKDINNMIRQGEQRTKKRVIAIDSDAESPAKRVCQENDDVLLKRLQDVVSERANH
Nature of the test: co-IP; lysates of Rat2, MEF or 3T3 cells expressing all five JCV early proteins or tAg only, incubated overnight with Molt 4 extracts; IP with anti-p107 antibody, Western blot with a cocktail of anti-T monoclonal antibodies. (Immunoblotting shows a protein as a band on a membrane.)

Regarding “JC virus small tumor antigen, wild type (from UniProt P03083 1-172)”, the binding result is reported as “binds” with p130, “binds weakly” in the test with pRB and “binds” in test [1].
